## Library screening results

Amino acid sequences for entries named in this document (tags omitted).
UniProt E9BF75, entry or part of it: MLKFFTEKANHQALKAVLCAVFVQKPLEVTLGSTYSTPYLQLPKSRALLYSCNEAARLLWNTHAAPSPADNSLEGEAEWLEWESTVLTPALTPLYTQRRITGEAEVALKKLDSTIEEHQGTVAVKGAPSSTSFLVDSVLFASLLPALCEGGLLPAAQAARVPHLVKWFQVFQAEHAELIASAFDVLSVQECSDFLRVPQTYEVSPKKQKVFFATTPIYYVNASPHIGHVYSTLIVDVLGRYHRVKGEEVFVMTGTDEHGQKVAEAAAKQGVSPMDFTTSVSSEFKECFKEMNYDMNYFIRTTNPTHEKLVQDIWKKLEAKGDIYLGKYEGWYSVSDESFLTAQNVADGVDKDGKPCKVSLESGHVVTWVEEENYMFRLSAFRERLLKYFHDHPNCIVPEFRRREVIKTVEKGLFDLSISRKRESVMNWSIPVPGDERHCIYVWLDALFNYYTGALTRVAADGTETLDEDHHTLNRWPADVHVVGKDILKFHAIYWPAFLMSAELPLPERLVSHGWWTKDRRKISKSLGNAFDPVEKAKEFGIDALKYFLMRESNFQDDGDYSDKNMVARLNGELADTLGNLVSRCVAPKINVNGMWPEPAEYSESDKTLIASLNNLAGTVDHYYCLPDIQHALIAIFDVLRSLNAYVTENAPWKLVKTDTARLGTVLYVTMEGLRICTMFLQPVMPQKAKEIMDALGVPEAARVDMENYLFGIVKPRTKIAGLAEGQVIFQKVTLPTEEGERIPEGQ

Data taken from ChEMBL document CHEMBL3988442, “University of Dundee, Small-Polar-MMV Screening Library” (2021).

All values are in %.
How 0% and 100% were set is not recorded. Most values in the screen are low, and negative values occur.
Compounds were drawn at random from those tested, without regard to their results.
A dash means the value is not listed here; it may have been measured.

Mtb heat-shock: 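Assay on Mycobacterium tuberculosis, filed only as a heat shock assay from Cornell; the read-out is not stated. The concentration is filed as 10 mM, unlikely as a test dose, so the dose is not known. Higher reads as stronger inhibition (inferred: compounds with an IC50 in retests scored well above the rest). Size under these conditions: about 69,000 compounds, about 930 of them at 50% or above in at least one test.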
LdMetRS: 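Primary screen of methionyl-tRNA synthetase; the read-out is not stated. Target: Methionyl-tRNA synthetase (putative), Leishmania donovani (UniProt E9BF75). The test concentration is not given. The values are filed as inhibition. Size under these conditions: about 68,000 compounds, about 24 of them at 50% or above in at least one test.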
Mtb growth Cornell: 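Whole-cell assay for inhibitors of Mycobacterium tuberculosis growth, labelled Cornell in the record; the read-out is not stated. The concentration is filed as 10 mM, unlikely as a test dose, so the dose is not known. The record gives no direction; compounds strong in two other growth screens of this library score well above the rest, so higher reads as stronger inhibition. Of about 53,000 compounds tested this way, about 900 (1.7%) reached 50% or more in at least one test.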

SMILES	Mtb heat-shock	LdMetRS	Mtb growth Cornell
COc1ccccc1CC(C)CC(=O)NC(C)C (stereo not shown)	-11.57%	7.551%	26.01%
CCOc1cc(C)nc(N2CCN(C(=O)c3cc(Cl)c[nH]3)CC2)n1	-0.9189%	18.44%	14.59%
CC(C)(C)OC(=O)NCC1CCCCN1Cc1cccnc1 (stereo not shown)	17.71%	13.52%	-
CN(CCC#N)C(=O)CN1CCCC1c1cccs1 (stereo not shown)	17.32%	13.87%	10.27%
O=C(CCn1cccc1)N1CCc2[nH]nc(COc3ccccc3)c2C1	17.18%	22.52%	10.5%
CCCC(=O)N(CCCN1CCOCC1)c1nc2c(Cl)cccc2s1.Cl	25.9%	-	9.811%
CCc1cnc(CN2CCCC2c2noc(C3CC3)n2)o1 (stereo not shown)	29.01%	10.46%	10.45%
CN(c1ccncn1)C1CC2(CCN(C(=O)Cc3cccs3)C2)C1 (stereo not shown)	-8.503%	5.412%	-
Cc1cc(C(=O)N2CCCC(n3cncn3)C2)nn1C (stereo not shown)	3.558%	22.22%	-45.88%
Cc1ccccc1CCNC(=O)N1CCCC(c2nncn2C)C1 (stereo not shown)	21.25%	2.089%	-32.27%
CCc1cc(NCCc2ccc(O)cc2)n2nccc2n1	7.761%	3.448%	-2.898%
O=C(O)C(F)(F)F.[H][C@@]12CCN(c3ccncn3)C[C@@]1([H])[C@H](C(=O)NCc1ccco1)CCO2	-4.519%	-	25.14%
CCOCc1cnc2n1CCN(C(=O)Cc1ccccn1)C2C (stereo not shown)	-	-5.263%	-
CSCc1noc(CNC(=O)C2CCN(C(=O)C3CCCC3)CC2)n1	-12.74%	8.629%	-
CCN(CCO)Cc1ccc(Br)c2cccnc12	-16.57%	14.74%	15.02%
CCOC(=O)N[C@H]1C[C@@H](C(=O)NCc2cccc(Cl)c2)N(C)C1	-19.82%	10.99%	-21.79%
CN1C(=O)CC2(CCN(S(=O)(=O)N(C)C)CC2)c2ccccc21	-22.62%	1.087%	-44.59%
COc1cc(C2SCC(=O)Nc3ccsc32)cc(OC)c1O (stereo not shown)	9.514%	-5.455%	-15.68%
Cc1noc(C)c1-c1cc(CCC2CN(C(=O)CN)CCO2)ncn1 (stereo not shown)	-0.475%	19.69%	45.62%
CCN1CCN(Cc2nc(CCc3ccccc3)n[nH]2)CC1	-27.72%	8.993%	7.75%
CCCNC(=O)c1ccc2c(OC)n(C)nc2c1	10.69%	12.95%	11.84%
CS(=O)(=O)CC1(CNc2ccc(C#N)c(C(F)(F)F)c2)CC1	-7.77%	14.21%	-
OCc1csc(N2CCN(Cc3cccc(F)c3)CC2)n1	-5.134%	8.383%	-15.54%
CCN(CC)CCCC(C)NC(=O)c1ccccc1-n1cccn1 (stereo not shown)	13.75%	9.278%	-
Cc1ccc(CN2CCO[C@H]3[C@H](OCc4cccnc4)CC[C@@H]32)o1	-	-12.47%	-
CCc1nc(C)c([C@H]2CN(C)C[C@@H]2C(=O)NC(C)(C)c2ccccc2)[nH]1	-10.89%	12.36%	-9.329%
CCc1nc(CC)n(CC(=O)NCc2ccccc2C)n1	9.521%	11.71%	-22.83%
CCCC(=O)N1CCCC(c2ccccn2)C1 (stereo not shown)	-8.859%	15.82%	-14.48%
O=C(O)C(F)(F)F.c1cc(-c2ccc3nc(C4CCN(CC5CC5)CC4)nn3c2)cs1	-34.74%	-	14.92%
CCCN1CCC(c2nc3ccc(C)cn3n2)CC1.O=C(O)C(F)(F)F	7.897%	-	3.764%
Cc1cc(C(=O)Nc2n[nH]c(C3CC3)n2)c2c(C)noc2n1	-1.663%	9.164%	1.709%
CN(C)CCNC(=O)c1ccc2ccc(N(C)CC3CC3)n2c1	-34.83%	25.32%	-11.21%
O=C(O)C(F)(F)F.O=C(O)C(F)(F)F.O=C(O)C(F)(F)F.[H][C@@]12OCCN(CCN(CC)CC)[C@@]1([H])CC[C@@H]2OCc1ccncc1	-38.69%	-	18.67%
Cc1cccc(C(=O)N2CCN(CCC(C)C)CC2)n1	10.08%	11.68%	-
CCCS(=O)(=O)N1CCN(c2cc(-n3cccc3)nc(C)n2)CC1	25.87%	13.52%	6.632%
Cc1ccc(OCc2nc(CNCC3CN(C)CCO3)cs2)cc1 (stereo not shown)	-20.93%	7.386%	-
CC(C)OCCCN1CCCC(c2nc3ccccc3n2C(C)C)C1 (stereo not shown)	-3.587%	5.714%	23.14%
Cc1cc(C(=O)NCc2c(C)nn(C)c2C)nc(N2CCCC2)n1	-11.22%	8.84%	-
CN(C)C1(CNC(=O)C2CCCN2Cc2ccc(F)cc2)CCOCC1 (stereo not shown)	2.923%	11.45%	13.28%
CC(=O)N1CCC(c2nc(C)cc(-c3ccccc3C(=O)O)n2)CC1	-7.619%	19.79%	-42.06%

3 of the entries, repeated:

{"smiles": "CCc1cc(NCCc2ccc(O)cc2)n2nccc2n1", "Mtb heat-shock": 7.761, "LdMetRS": 3.448, "Mtb growth Cornell": -2.898}
{"smiles": "Cc1ccc(CN2CCO[C@H]3[C@H](OCc4cccnc4)CC[C@@H]32)o1", "LdMetRS": -12.47}
{"smiles": "CN1C(=O)CC2(CCN(S(=O)(=O)N(C)C)CC2)c2ccccc21", "Mtb heat-shock": -22.62, "LdMetRS": 1.087, "Mtb growth Cornell": -44.59}